This note sets out measurements from PMC11095456.

This test addresses EVI1 (human (endogenous in MUTZ3)). Put plainly: affinity purification with mass spectrometry; IP for EVI1 and MS (DIA) in MUTZ3 cells with 4× PLDLS or 4× PLASS induced with doxycycline (1 μg/ml) for 72 hours; abundances within the EVI1 IP compared.

Results are given in words; binding and its absence hold for the method and conditions named. Binding seen in cells or lysates may run through a third protein. These calls come from enrichment with a bait or labelling near it, and not all partners need be listed.

B1: ZEB2 (protein, UniProt O60315 1-1214)
chain: MKQPIMADGPRCKRRKQANPRRKNVVNYDNVVDTGSETDEEDKLHIAEDDGIANPLDQETSPASVPNHESSPHVSQALLPREEEEDEIREGGVEHPWHNNEILQASVDGPEEMKEDYDTMGPEATIQTAINNGTVKNANCTSDFEEYFAKRKLEERDGHAVSIEEYLQRSDTAIIYPEAPEELSRLGTPEANGQEENDLPPGTPDAFAQLLTCPYCDRGYKRLTSLKEHIKYRHEKNEENFSCPLCSYTFAYRTQLERHMVTHKPGTDQHQMLTQGAGNRKFKCTECGKAFKYKHHLKEHLRIHSGEKPYECPNCKKRFSHSGSYSSHISSKKCIGLISVNGRMRNNIKTGSSPNSVSSSPTNSAITQLRNKLENGKPLSMSEQTGLLKIKTEPLDFNDYKVLMATHGFSGTSPFMNGGLGATSPLGVHPSAQSPMQHLGVGMEAPLLGFPTMNSNLSEVQKVLQIVDNTVSRQKMDCKAEEISKLKGYHMKDPCSQPEEQGVTSPNIPPVGLPVVSHNGATKSIIDYTLEKVNEAKACLQSLTTDSRRQISNIKKEKLRTLIDLVTDDKMIENHNISTPFSCQFCKESFPGPIPLHQHERYLCKMNEEIKAVLQPHENIVPNKAGVFVDNKALLLSSVLSEKGMTSPINPYKDHMSVLKAYYAMNMEPNSDELLKISIAVGLPQEFVKEWFEQRKVYQYSNSRSPSLERSSKPLAPNSNPPTKDSLLPRSPVKPMDSITSPSIAELHNSVTNCDPPLRLTKPSHFTNIKPVEKLDHSRSNTPSPLNLSSTSSKNSHSSSYTPNSFSSEELQAEPLDLSLPKQMKEPKSIIATKNKTKASSISLDHNSVSSSSENSDEPLNLTFIKKEFSNSNNLDNKSTNPVFSMNPFSAKPLYTALPPQSAFPPATFMPPVQTSIPGLRPYPGLDQMSFLPHMAYTYPTGAATFADMQQRRKYQRKQGFQGELLDGAQDYMSGLDDMTDSDSCLSRKKIKKTESGMYACDLCDKTFQKSSSLLRHKYEHTGKRPHQCQICKKAFKHKHHLIEHSRLHSGEKPYQCDKCGKRFSHSGSYSQHMNHRYSYCKREAEEREAAEREAREKGHLEPTELLMNRAYLQSITPQGYSDSEERESMPRDGESEKEHEKEGEDGYGKLGRQDGDEEFEEEEEESENKSMDTDPETIRDEEETGDHSMDDSSEDGKMETKSDHEEDNMEDGM
On to B1, for which the binding entry is given as “binds”.
